Laboratory results reported in patent publication US20220009979A1 (Alexion, published 2022).
Results are given in words; binding and its absence hold for the method and conditions named. Some entries that bind do so weakly or less than the wild type. Each block holds one binder with its values, some of them ahead of it.

Sequences of proteins named here, by UniProt entry; tags and fusion partners are left off. Residues count along the entry.
UniProt P01024, residues 1002-1303: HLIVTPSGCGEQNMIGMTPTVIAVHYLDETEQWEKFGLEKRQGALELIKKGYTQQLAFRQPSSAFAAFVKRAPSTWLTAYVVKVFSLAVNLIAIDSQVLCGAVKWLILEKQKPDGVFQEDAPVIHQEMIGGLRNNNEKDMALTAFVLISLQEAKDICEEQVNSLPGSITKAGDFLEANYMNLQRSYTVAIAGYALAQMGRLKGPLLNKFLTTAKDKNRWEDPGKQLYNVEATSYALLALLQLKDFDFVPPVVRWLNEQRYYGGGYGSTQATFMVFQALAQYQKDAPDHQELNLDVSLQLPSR

Biological target: Purified C3d (Quidel, San Diego, Calif.) (UniProt P01024)
Test: Octet Red BLI, biotinylated C3d on streptavidin biosensors, analyte at 2 uM

binding: binds
B1: Compound AC (Fc fusion)
chain: ISCGSPPPILNGRISYYSTPIAVGTVIRYSCSGTFRLIGEKSLLCITKDKVDGTWDKPAPKCEYFNKYSSCPEPIVPGGYKIRGSTPYRHGDSVTFACKTNFSMNGQKSVWCQANNMWGPTRLPTCVSVFPGGGGSDAAVECPPCPAPPVAGPSVFLFPPKPKDTLMISRTPEVTCVVVDVSQEDPEVQFNWYVDGVEVHNAKTKPREEQFNSTYRVVSVLTVLHQDWLNGKEYKCKVSNKGLPSSIEKTISKAKGQPREPQVYTLPPSQEEMTKNQVSLTCLVKGFYPSDIAVEWESNGQPENNYKTTPPVLDSDGSFFLYSRLTVDKSRWQEGNVFSCSVMHEALHNHYTQKSLSLSLGKGGGGAGGGGAGGGAGGGGSEDCNELPPRRNTEILTGSWSDQTYPEGTQAIYKCRPGYRSLGNVIMVCRKGEWVALNPLRKCQKRPCGHPGDTPFGTFTLTGGNVFEYGVKAVYTCNEGYQLLGEINYRECDTDGWTNDIPICEVVKCLPVTAPENGKIVSSAMEPDREYHFGQAVRFVCNSGYKIEGDEEMHCSDDGFWSKEKPKCVEISCKSPDVINGSPISQKIIYKENERFQYKCNMGYEYSERGDAVCTESGWRPLPSCEEKS

binding: binds
B2: Compound AQ (Fc fusion)
chain: ISCGSPPPILNGRISYYSTPIAVGTVIRYSCSGTFRLIGEKSLLCITKDKVDGTWDKPAPKCEYFNKYSSCPEPIVPGGYKIRGSTPYRHGDSVTFACKTNFSMNGQKSVWCQANNMWGPTRLPTCVSVFPGGGGSDAAVECPPCPAPPVAGPSVFLFPPKPKDTLMISRTPEVTCVVVDVSQEDPEVQFNWYVDGVEVHNAKTKPREEQFNSTYRVVSVLTVLHQDWLNGKEYKCKVSNKGLPSSIEKTISKAKGQPREPQVYTLPPSQEEMTKNQVSLTCLVKGFYPSDIAVEWESNGQPENNYKTTPPVLDSDGSFFLYSRLTVDKSRWQEGNVFSCSVMHEALHNHYTQKSLSLSLGK
